Article PMC12010153
No constants are given. Whether binding was seen depends on the method and setting. Binding seen in cells or lysates may run through a third protein. Some entries that bind do so weakly or less than the wild type. Where a sequence is shown, tags or fusion partners need not be part of it.

Amino acid sequences for entries named in this document (tags omitted). A change or cut given only in a name is not applied to a line headed by its entry.
UniProt P36405: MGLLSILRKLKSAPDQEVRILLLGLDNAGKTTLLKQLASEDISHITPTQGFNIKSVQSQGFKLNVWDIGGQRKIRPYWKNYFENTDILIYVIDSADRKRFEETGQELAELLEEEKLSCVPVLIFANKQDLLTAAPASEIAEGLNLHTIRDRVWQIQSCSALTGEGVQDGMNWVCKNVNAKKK

Target: T1, RP2-GFP (UniProt O75695)
T1 sequence: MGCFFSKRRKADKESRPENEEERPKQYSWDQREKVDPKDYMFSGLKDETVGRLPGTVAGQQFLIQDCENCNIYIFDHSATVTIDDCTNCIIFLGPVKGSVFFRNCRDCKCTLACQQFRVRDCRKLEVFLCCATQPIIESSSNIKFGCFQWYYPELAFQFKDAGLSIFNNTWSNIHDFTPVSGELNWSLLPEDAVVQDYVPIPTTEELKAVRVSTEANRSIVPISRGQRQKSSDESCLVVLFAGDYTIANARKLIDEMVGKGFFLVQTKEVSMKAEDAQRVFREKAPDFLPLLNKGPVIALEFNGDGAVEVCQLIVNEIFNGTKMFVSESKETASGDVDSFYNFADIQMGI
Test: co-IP; HEK293 cells co-transfected with GFP-RP2 and VSV-ARL3 plasmids, 48 h; lysis in 10 mM Tris/Cl pH 7.5, 150 mM NaCl, 0.5 mM EDTA, 0.5% Nonidet P40 Substitute; lysates on GFP-Trap Magnetic Agarose beads; blots with anti-GFP and anti-VSV

Substance | binding
ARL3-G70E-VSV (from UniProt P36405 1-182) | binds
ARL3-Q71L-VSV (from UniProt P36405 1-182) | binds
